According to PubChem BioAssay AID276 (DTP/NCI, 2004):
The list is a part of this screen's results and no random one: it gathers tests that were run many times, whatever their T/C, doses with no T/C, and many T/C values between a quarter and a half above the control. Other doses and runs of a compound stand elsewhere. T/C: endpoint of the treated group in % of that of the vehicle group. Some entries give survivors of the animals treated and no T/C: the source holds a T/C of zero for them, seemingly a mark for toxic or unscored doses. Some survivor counts are full or nearly so, which does not show that the dose was tolerated: the source hardly ever lists a survival T/C far under the control, and the zero likely stands for such cases as well. Counts of survivors are from the toxicity check (mostly the fifth day) where no day follows; animals may have died later. Schedule codes are those of the source, read here as Q, the interval in days (D) or hours (H), X, the number of doses. Some entries were tested several times; the values are given in rising order.

System: B6C3F1 mice, Lewis lung carcinoma iv, survival T/C
Experiment: NCI In Vivo Anticancer Drug Screen. Data for tumor model Lewis Lung Carcinoma (intravenous) in B6C3F1 mice
Conditions: T/C endpoint: median survival time, schedule: Q01DX009 (ip), vehicle: DMSO, higher T/C = longer survival
How it was run: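 Read-out is survival, expressed as the treated-group measurement over the vehicle control-group measurement. Animals bore a transplantable tumor and were given compound.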

[N-]=[N+]=CC(=O)CCC(=O)C=[N+]=[N-]
survivor count (dose: 1.56 mg/kg/injection): 10 of 10
survivor count (dose: 3.12 mg/kg/injection): 9 of 10
survivor count (dose: 6.25 mg/kg/injection): 8 of 10
survivor count (dose: 12.0 mg/kg/injection): 9 of 10
survivor count (dose: 12.5 mg/kg/injection): 8 of 10 and 10 of 10
survivor count (dose: 24.0 mg/kg/injection): 9 of 10
survivor count (dose: 25.0 mg/kg/injection): 10 of 10
survivor count (dose: 48.0 mg/kg/injection): 8 of 10
survivor count (dose: 50.0 mg/kg/injection): 10 of 10
survivor count (dose: 100.0 mg/kg/injection): 10 of 10
survivor count (dose: 200.0 mg/kg/injection): 10 of 10
survivor count (dose: 400.0 mg/kg/injection): 4 of 10 and 8 of 10
